In the supplement of paper PMC10735217:
The list shows a part of the results. Repeats in this data set agree poorly, so a single value says little.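 Human kidney-derived cells stably carry a construct in which eight TEAD-binding elements drive luciferase, measured by luminescence in a drug-repurposing library screen. A hit is any compound whose signal exceeds the plate mean by more than five robust Z scores.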

Tested on: HEK293A TEAD-LUC reporter
Test: TEAD-luciferase reporter activity (YAP activation), robust Z score vs plate; higher = stronger YAP/TEAD activation
Conditions: 24 h

SMILES | TEAD-luciferase reporter activity (compound concentration: 200 nM) | TEAD-luciferase reporter activity (compound concentration: 2 uM) | TEAD-luciferase reporter activity (compound concentration: 10 uM)
CN(C)CCC/N=C1\CC(c2ccc(Cl)cc2Cl)Cc2[nH]c3ccc(Cl)cc3c(=O)c21 (centres undefined) | inactive: 1.78 | inactive: 0.775 | inactive: -0.522
CN(Cc1c(-c2ccc(Cl)cc2)nc2ccccn12)C(=O)Cc1ccccc1 | inactive: -1.26 | inactive: -0.334 | inactive: -0.947
C[C@H](CCC(=O)N(C)CC(=O)O)[C@H]1CC[C@H]2[C@@H]3[C@H](O)C[C@@H]4C[C@H](O)CCC4(C)[C@H]3C[C@H](O)[C@]12C (some centres undefined) [Cholylsarcosine] | inactive: -0.0734 | inactive: -0.0174 | inactive: 0.903
CCNC(=O)C#Cc1ccc2c(c1)NC(=O)/C2=C(\Nc1ccc(CN(C)C)cc1)c1ccccc1 | inactive: -1.68 | inactive: -2.7 | inactive: 0.971
Cc1cc2ncn(C/C=C3\c4ccccc4COc4ccc(C(=O)O)cc43)c2cc1C | inactive: 0.477 | inactive: 1.36 | inactive: 0.769
Cc1nc(NNC(=O)[C@H](CC2CCCC2)CN(O)C=O)c(F)c(N2CCN3CCOC[C@@H]3C2)n1 | inactive: -1.79 | inactive: 0.432 | inactive: -0.682
c1ccc(-c2ncn(CCCCN3CCCC3)c2-c2ccncc2)cc1 | inactive: -1.61 | inactive: -1.82 | inactive: -1.5
CC[C@H](C)[C@H](NC(=O)[C@H](CCCN=C(N)N)NC(=O)[C@H](C)NC(=O)[C@H](Cc1cnc[nH]1)NC(=O)[C@@H]1CCCN1C(=O)[C@H](Cc1cnc[nH]1)NC(=O)[C@@H]1CCCN1C(=O)[C@@H]1CCCN1C(=O)[C@@H]1CCCN1C(C)=O)C(=O)N[C@@H](CCCCN)C(N)=O | inactive: -1.33 | inactive: -1.01 | active: 6.41
CCCCCCCO[C@@H]1[C@H]2OC(C)(C)O[C@H]2O[C@@H]1CCNCc1ccccn1 | inactive: -0.881 | inactive: -0.632 | inactive: 4.59
CCN1/C(=C/C=C/C=C/c2sc3ccccc3[n+]2CC)Sc2ccccc21 | inactive: -0.473 | inactive: -1.43 | active: 7.57
CC#CC1(OCC(COCC(C)C)N2CCCC2)CCCCC1 (centres undefined) | inactive: -1.15 | inactive: -0.0998 | inactive: 3.52
CC[C@]1(C)C[C@@H](OC(=O)CSc2nnc(N)[nH]2)[C@]2(C)[C@H](C)CC[C@]3(CCC(=O)[C@H]32)[C@@H](C)[C@@H]1O [azamulin] | inactive: 3.17 | inactive: -1.08 | inactive: 0.336
CCCC(=O)N(C)Cc1c(-c2ccc(Cl)cc2)nc2ccccn12 [Saripidem] | inactive: 2.86 | inactive: -0.371 | inactive: -0.938

Taken from the listing (two entries):
SMILES | TEAD-luciferase reporter activity (compound concentration: 200 nM) | TEAD-luciferase reporter activity (compound concentration: 2 uM) | TEAD-luciferase reporter activity (compound concentration: 10 uM)
CN(Cc1c(-c2ccc(Cl)cc2)nc2ccccn12)C(=O)Cc1ccccc1 | inactive: -1.26 | inactive: -0.334 | inactive: -0.947
C[C@H](CCC(=O)N(C)CC(=O)O)[C@H]1CC[C@H]2[C@@H]3[C@H](O)C[C@@H]4C[C@H](O)CCC4(C)[C@H]3C[C@H](O)[C@]12C (some centres undefined) [Cholylsarcosine] | inactive: -0.0734 | inactive: -0.0174 | inactive: 0.903
